Data source: PubChem BioAssay AID1259424 (University of Nebraska Medical Center, 2018)
This is one part, drawn at random, of about 14,000 reagents. 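Higher correlation or smaller distance means closer resemblance to KSR1 loss; control wells, including KSR1 knockdowns, recur on many plates.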 Some reagents were tested in more than one well and are listed for each. Further read-outs or replicates are left out here. Not stated in the record: the time to read-out.

- Purpose: 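Find knockdowns that reproduce the expression shifts seen after KSR1 loss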 (primary screen)
- System: human HCT116 colon cancer cells
- Reagent: siRNA pool against human genes, 50 nM
- Measurement: 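Log2 levels of six mRNAs (branched-DNA multiplex), adjusted by two reference genes and the non-targeting median, then scored against the average KSR1 knockdown pattern as Pearson r and euclidean distance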
- Scale: mean correlation with KSR1 profile: higher = expression change more like KSR1 knockdown; mean distance from KSR1 profile: higher = expression change less like KSR1 knockdown

FSCB
- mean correlation with KSR1 profile: 0.802
- mean distance from KSR1 profile: 2.25

DHRS7B
- mean correlation with KSR1 profile: -0.305
- mean distance from KSR1 profile: 1.33

HMGCR
- mean correlation with KSR1 profile: 0.225
- mean distance from KSR1 profile: 1.62

CACNA1E
- mean correlation with KSR1 profile: -0.201
- mean distance from KSR1 profile: 2.57

CCAR2
- mean correlation with KSR1 profile: -0.167
- mean distance from KSR1 profile: 2.01

UBTD1
- mean correlation with KSR1 profile: 0.199
- mean distance from KSR1 profile: 3.07

HNF1A
- mean correlation with KSR1 profile: 0.799
- mean distance from KSR1 profile: 2.13

SMCP
- mean correlation with KSR1 profile: -0.47
- mean distance from KSR1 profile: 1.94

DARS2
- mean correlation with KSR1 profile: -0.417
- mean distance from KSR1 profile: 1.07

MFHAS1
- mean correlation with KSR1 profile: 0.779
- mean distance from KSR1 profile: 1.84

STARD9
- mean correlation with KSR1 profile: -0.000662
- mean distance from KSR1 profile: 1.4

HES2
- mean correlation with KSR1 profile: -0.112
- mean distance from KSR1 profile: 2.17

TPST2
- mean correlation with KSR1 profile: -0.488
- mean distance from KSR1 profile: 2.57

MSI1
- mean correlation with KSR1 profile: -0.275
- mean distance from KSR1 profile: 3.44

MYO1A
- mean correlation with KSR1 profile: -0.223
- mean distance from KSR1 profile: 2

TXNRD1
- mean correlation with KSR1 profile: -0.341
- mean distance from KSR1 profile: 1.51

ATP5MC2
- mean correlation with KSR1 profile: 0.823
- mean distance from KSR1 profile: 4.17

UTP20
- mean correlation with KSR1 profile: 0.339
- mean distance from KSR1 profile: 1.27

RNF186
- mean correlation with KSR1 profile: 0.169
- mean distance from KSR1 profile: 1.21

ZBTB40
- mean correlation with KSR1 profile: -0.544
- mean distance from KSR1 profile: 2.09

SRM
- mean correlation with KSR1 profile: 0.0368
- mean distance from KSR1 profile: 3.21

CPSF7
- mean correlation with KSR1 profile: 0.689
- mean distance from KSR1 profile: 1.14

AKAP8L
- mean correlation with KSR1 profile: -0.246
- mean distance from KSR1 profile: 1.33

AKAP8L
- mean correlation with KSR1 profile: 0.428
- mean distance from KSR1 profile: 1.57

VDAC1
- mean correlation with KSR1 profile: 0.07
- mean distance from KSR1 profile: 1.83

ADGRL1
- mean correlation with KSR1 profile: 0.927
- mean distance from KSR1 profile: 0.966

HEATR3
- mean correlation with KSR1 profile: -0.816
- mean distance from KSR1 profile: 2.94

CHST8
- mean correlation with KSR1 profile: -0.6
- mean distance from KSR1 profile: 1.31

Reprinted from above, 3 entries:
AKAP8L
- mean correlation with KSR1 profile: -0.246
- mean distance from KSR1 profile: 1.33

AKAP8L
- mean correlation with KSR1 profile: 0.428
- mean distance from KSR1 profile: 1.57

VDAC1
- mean correlation with KSR1 profile: 0.07
- mean distance from KSR1 profile: 1.83
